Here are results for one substance from PMC12307642.

The chains behind the UniProt entries cited, without tags or fusion partners.
UniProt P06733: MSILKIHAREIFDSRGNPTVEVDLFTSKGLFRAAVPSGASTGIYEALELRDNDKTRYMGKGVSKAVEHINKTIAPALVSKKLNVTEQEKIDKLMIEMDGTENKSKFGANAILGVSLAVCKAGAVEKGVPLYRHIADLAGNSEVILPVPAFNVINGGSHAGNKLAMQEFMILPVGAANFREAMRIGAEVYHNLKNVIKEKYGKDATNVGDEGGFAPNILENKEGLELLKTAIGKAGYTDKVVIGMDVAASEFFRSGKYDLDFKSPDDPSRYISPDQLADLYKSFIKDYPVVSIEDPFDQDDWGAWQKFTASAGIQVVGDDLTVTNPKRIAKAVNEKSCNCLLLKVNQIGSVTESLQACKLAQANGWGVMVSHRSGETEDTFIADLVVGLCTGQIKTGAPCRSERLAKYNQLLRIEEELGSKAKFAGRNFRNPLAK

This assay addresses T1, Flag-tagged circUBE2G1-99aa (human) (UniProt P62253).
T1 sequence: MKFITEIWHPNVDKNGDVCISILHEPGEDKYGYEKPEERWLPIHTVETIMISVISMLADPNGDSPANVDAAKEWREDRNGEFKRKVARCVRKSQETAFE
The experiment in a line: affinity purification with mass spectrometry; Flag immunoprecipitation (against IgG) from HGC-27 cells transfected with circUBE2G1-99aa plasmid; SDS-PAGE, bands excised, LC-MS/MS.

Results are given in words; binding and its absence hold for the method and conditions named. In cells and extracts the contact can be indirect. Here binding means that the protein was enriched with, or labelled near, the bait; the list need not be complete. Where a sequence is shown, tags or fusion partners need not be part of it.

Regarding “enolase 1 (ENO1) (from UniProt P06733 1-434) (enzyme)”, the binding result is “binds”.
